{"source": "PubChem BioAssay (EPA / NIEHS)", "note": "Where “and” joins values, the source holds several entries; their conditions need not be identical. Equal values may be shown once. The inconclusive results got no clear call from the source; some entries with a clear call stand among them for comparison. Where the call is inconclusive, the potency comes from a doubtful curve fit. Calls of active or inactive are those of the source. Rule for the calls: active = hit-call score of the fitted dose curve at least 0.9, where 1 is the maximum; inconclusive = response in the unintended direction; inactive = score below 0.9.", "data": [{"assay": "ATG_M_19_TRANS: Attagene TRANS-FACTORIAL HepG2 Assay for M19 Transcription Factor (Internal Marker) (AID 2282974)", "conditions": "HepG2 Attagene TRANS-FACTORIAL M19 internal marker reporter", "method": "ATG_TRANS is a cell-based, multiplexed-readout assay that uses HepG2, a human liver cell line, with measurements taken at 24 hours after chemical dosing in a 24-well plate.ATG_M_19_TRANS is one of 30 assay component(s) measured or calculated from the ATG_TRANS assay. It is designed to make measurements of mRNA induction, a form of inducible reporter, as detected with fluorescence intensity signals by Reverse transcription polymerase chain reaction (RT-PCR) and Capillary electrophoresis technology.Data from the assay component ATG_M_19_TRANS was analyzed into 1 assay endpoint. This assay endpoint, ATG_M_19_TRANS, was analyzed in the positive analysis fitting direction relative to DMSO as the negative control and baseline of activity. Using a type of inducible reporter, measures of mRNA for gain-of-signal activity can be used to understand the background control at the transcription factor-level as they relate to the gene . Furthermore, this assay endpoint can be referred to as a secondary readout, because this assay has produced multiple assay endpoints where this one serves a background control function. To generalize the intended target to other relatable targets, this assay endpoint is annotated to the background measurement intended target family, where the subfamily is internal marker.\nHuman liver HepG2 cells are transiently transfected with multiple reporter transcription units (MRTUs) in 6-well plates using FuGene 6 reagent (Roche; 3 ml FuGene/1 mg DNA). The MRTU constructs are regulated by a cis-regulating element (promoter). […] A major difference between the CIS and TRANS system is that in CIS activities of endogenous TFs are measured, whereas the TRANS assay evaluates changes in activities of exogenous, chimeric NR-Gal4 proteins. […] At the end of 24 hour incubation, total RNA was isolated using TriZol reagent (Invitrogen). The isolated RNA is then reverse-transcribed using oligo(dT) primer and Mo-MLV reverse transcriptase (Invitrogen) with DNAse I (Ambion) treatment for 30 min. The one-tenth of the produced cDNA was amplified by PCR using Taq DNA polymerase (Invitrogen) and two reporter sequence-specific primers. The PCR products were fluorescently labeled by primer extension with 6-arboxyfluorescein (6-FAM) 5'-labeled reporter sequence-specific primer (2 min at 95 C, 20 s at 68 C and 10 min at 72 C) and these products were digested with 5U of HpaI (New England Biolabs) for 2h at 37 C. The fragments were purified using Qiaquick PCR columns (Qiagen), analyzed on an ABI 3130xL genetic analyzer (Applied Biosystems) with peak positions identified by using a set of X-rhodamine (ROX)-labeled MapMarker1000 molecular weight standards (BioVentures). The raw capillary electrophoresis data was processed using Attagraph software (Attagene).", "values": [{"smiles": "O=c1oc2ccccc2c(O)c1C(CC(O)c1ccc(-c2ccc(Br)cc2)cc1)c1ccccc1", "note": "(stereo not given)", "AC50": "inconclusive: 23.6 µM"}, {"smiles": "CC(C)c1ccc(O)cc1", "AC50": "inconclusive: 100 µM"}, {"smiles": "CCOc1cccc(C2(N3CCN(c4ccccc4)CC3)CCC(C)CC2)c1", "note": "(stereo not given)", "AC50": "inconclusive: 100 µM"}, {"smiles": "Nc1ccc(Br)cc1", "outcome": "inactive"}, {"smiles": "CC1(C)CC(=O)CC(C)(C)N1[O]", "outcome": "inactive"}, {"smiles": "Cc1c([N+](=O)[O-])c(C)c([N+](=O)[O-])c(C(C)(C)C)c1[N+](=O)[O-]", "outcome": "inactive"}, {"smiles": "CSc1nnc(C(C)(C)C)c(=O)n1N", "AC50": "inconclusive: 0.0129 µM"}, {"smiles": "CC(=O)C(F)(F)C(F)(F)F", "AC50": "inconclusive: 150 µM"}, {"smiles": "c1cc2c3c(cccc3c1)CC2", "outcome": "inactive"}, {"smiles": "O=C(Nc1ccccc1-c1ccc(Cl)cc1)c1cccnc1Cl", "AC50": "inconclusive: 12.6 µM"}, {"smiles": "CCN(CC)C(=O)C(C)Oc1cccc2ccccc12", "note": "(stereo not given)", "AC50": "inconclusive: 100 µM and inconclusive: 183 µM"}, {"smiles": "Nc1ccc(Cl)cc1", "outcome": "inactive"}, {"smiles": "CNC(=O)Oc1cccc2c1OC(C)(C)C2", "outcome": "inactive"}, {"smiles": "Oc1ccc(Cc2ccc(O)cc2)cc1", "AC50": "inconclusive: 175 µM"}, {"smiles": "COP(N)(=O)SC", "note": "(stereo not given)", "outcome": "inactive"}, {"smiles": "CCNS(=O)(=O)C(F)(F)C(F)(F)C(F)(F)C(F)(F)C(F)(F)C(F)(F)C(F)(F)C(F)(F)F", "AC50": "inconclusive: 96.5 µM and inconclusive: 150 µM"}, {"smiles": "CCOc1cc(C=O)ccc1O", "outcome": "inactive"}, {"smiles": "C[N+]1(C)CCCCC1", "outcome": "inactive"}, {"smiles": "CC(C)(C)c1cc(O)ccc1O", "AC50": "inconclusive: 1.03 µM and inconclusive: 33.4 µM and inconclusive: 476 nM"}, {"smiles": "CC1(C)CN=C(NN=C(/C=C/c2ccc(C(F)(F)F)cc2)/C=C/c2ccc(C(F)(F)F)cc2)NC1", "outcome": "inactive"}, {"smiles": "CC(C)(OO)c1ccccc1", "outcome": "inactive"}, {"smiles": "O=C(NC(=O)c1c(F)cccc1F)Nc1ccc(Cl)cc1", "outcome": "inactive"}, {"smiles": "Nc1c(Cl)cc([N+](=O)[O-])cc1Cl", "AC50": "inconclusive: 100 µM"}, {"smiles": "Cc1cc(C)c(C2=C(OC(=O)CC(C)(C)C)C3(CCCC3)OC2=O)c(C)c1", "outcome": "inactive"}, {"smiles": "CCCN(CCC)c1c([N+](=O)[O-])cc(C(F)(F)F)cc1[N+](=O)[O-]", "AC50": "inconclusive: 100 µM"}, {"smiles": "Cn1sc(Cl)cc1=O", "AC50": "inconclusive: 100 µM"}, {"smiles": "O=C(O)C(F)(F)OC(F)(F)C(F)(F)OC(F)(F)C(=O)O", "AC50": "inconclusive: 150 µM"}, {"smiles": "CO[C@@H]1[C@H](OC(=O)NC(=O)CCl)CC[C@]2(CO2)[C@H]1[C@@]1(C)O[C@@H]1CC=C(C)C", "AC50": "inconclusive: 7.91 µM"}, {"smiles": "Oc1c(I)cc(I)cc1I", "outcome": "inactive", "AC50": "inconclusive: 100 µM"}, {"smiles": "O=C(O)C(F)(F)C(F)(F)C(F)(F)C(F)(F)C(F)(F)C(F)(F)F", "outcome": "inactive", "AC50": "inconclusive: 0.133 µM"}, {"smiles": "CC(C)CBr", "AC50": "inconclusive: 100 µM"}, {"smiles": "C=CC(=O)OCC(F)(F)C(F)F", "AC50": "inconclusive: 150 µM"}, {"smiles": "O=C(NC(=O)c1c(F)cccc1F)Nc1cc(Cl)c(OC(F)(F)C(F)C(F)(F)F)cc1Cl", "note": "(stereo not given)", "AC50": "inconclusive: 100 µM"}, {"smiles": "c1ccc2c(c1)-c1cccc3cccc-2c13", "AC50": "inconclusive: 100 µM and inconclusive: 82.3 nM and inconclusive: 1.8 µM"}, {"smiles": "CCOP(=S)(OCC)Oc1nc(Cl)c(Cl)cc1Cl", "outcome": "inactive"}, {"smiles": "Cc1cc(C(F)(C(F)(F)F)C(F)(F)F)ccc1NC(=O)c1cccc(I)c1C(=O)NC(C)(C)CS(C)(=O)=O", "outcome": "inactive"}, {"smiles": "N#Cc1ccc(Cl)cc1", "outcome": "inactive"}, {"smiles": "[As]#[In]", "AC50": "inconclusive: 25.5 µM"}]}]}
